{"sequences": {"note": "The chains behind the UniProt entries cited, without tags or fusion partners.", "UniProt Q23978": "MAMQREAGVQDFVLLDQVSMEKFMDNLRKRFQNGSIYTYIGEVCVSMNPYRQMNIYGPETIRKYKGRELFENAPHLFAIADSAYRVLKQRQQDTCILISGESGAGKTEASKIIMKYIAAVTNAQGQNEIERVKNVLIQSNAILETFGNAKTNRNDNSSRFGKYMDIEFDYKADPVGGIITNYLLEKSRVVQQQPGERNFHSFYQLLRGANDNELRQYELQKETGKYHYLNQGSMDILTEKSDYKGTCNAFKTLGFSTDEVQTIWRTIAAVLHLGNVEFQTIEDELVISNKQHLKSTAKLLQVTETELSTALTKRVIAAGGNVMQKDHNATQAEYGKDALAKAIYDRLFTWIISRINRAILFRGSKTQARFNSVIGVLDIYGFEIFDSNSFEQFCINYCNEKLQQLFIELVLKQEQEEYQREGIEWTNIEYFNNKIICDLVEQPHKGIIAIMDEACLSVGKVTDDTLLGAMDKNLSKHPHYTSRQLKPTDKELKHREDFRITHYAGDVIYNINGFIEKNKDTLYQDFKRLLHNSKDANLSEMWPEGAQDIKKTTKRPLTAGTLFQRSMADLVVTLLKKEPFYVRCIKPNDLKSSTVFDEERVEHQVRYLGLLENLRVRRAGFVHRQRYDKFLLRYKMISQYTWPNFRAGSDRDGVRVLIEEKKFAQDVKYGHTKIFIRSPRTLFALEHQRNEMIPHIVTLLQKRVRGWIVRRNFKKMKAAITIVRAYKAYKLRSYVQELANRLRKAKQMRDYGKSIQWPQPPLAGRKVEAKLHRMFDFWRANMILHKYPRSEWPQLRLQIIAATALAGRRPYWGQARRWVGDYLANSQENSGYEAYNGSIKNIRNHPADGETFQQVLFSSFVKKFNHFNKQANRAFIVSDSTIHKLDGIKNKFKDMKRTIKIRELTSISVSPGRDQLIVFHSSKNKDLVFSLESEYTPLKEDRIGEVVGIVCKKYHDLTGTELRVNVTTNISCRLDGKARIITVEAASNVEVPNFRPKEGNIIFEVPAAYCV"}, "source": "paper PMC7200016", "biological_target": "Full-length DAAM-PD tagged with Flag (Drosophila) (UniProt M9MSM5)", "assay": "co-IP; S2 cells co-expressing GFP-tagged Myo1D and a Flag-tagged protein; lysates incubated with anti-Flag coated agarose beads, intensive wash, elution in Laemmli buffer, western blot with anti-GFP and anti-Flag", "note": "These are yes or no findings as the source states them, for the method shown. Binding seen in cells or lysates may run through a third protein. A result given as binding can be weak or reduced; the word gives no strength.", "data": [{"substance": "Full-length Myo1D tagged with GFP (from UniProt Q23978 1-1011)", "values": [{"measurement": "binding", "result": "binds"}]}]}
